Source: PubChem BioAssay AID1688 (National Center for Advancing Translational Sciences (NCATS), 2009)
Hit rate of the full screen: of about 220,000 compounds, about 2,400 (1.1%) were called active. Inconclusive means that the source gave no clear call. Such entries were picked first, then a sample of the others. Calls come from the whole dose curve; as a rule, active = well fitted inhibition curve with a large enough effect; inconclusive = small, poorly fitted or top-dose-only effect, or effect the other way; inactive = no such curve, though single readings can be large or run the other way. Potencies of inconclusive entries are doubtful fits and often do not repeat.
% is set by controls: 0 for no effect and ±100 for the full control effect; potency is the fitted concentration of half-maximal effect.

Assay: qHTS Multiplex Assay to Identify Dual Action Probes in a Cell Model of Huntington: Aggregate Formation (GFP); note: nearly all actives have a fitted effect of over 60% in size
Conditions: PC12 HttQ103-GFP aggregates, Acumen cytometry, 40 h; activity change, negative = inhibition: at 46.1 µM (top of the series) unless noted
Outline: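 PC12 cells with ecdysone-inducible HTT exon1 Q103-GFP, induced by 100 nM tebufenozide, given compounds in a concentration series. GFP aggregates (1–25 um, 6 SD above background) counted in lysates by laser-scanning cytometry, 488 nm excitation.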
For `C=CCn1c(-c2ccoc2)n[nH]c1=S`, the Potency was inconclusive: 1.26 µM [inhibitor, single point]. For `CCCCNS(=O)(=O)c1ccc2nc(SCC(N)=O)[nH]c2c1`, the activity change, negative = inhibition was inactive: -0.58% [at 9.22 µM]. With `CCOC(=O)N1CCN(S(=O)(=O)c2ccc(OCC)c(C)c2)CC1` the Potency was inconclusive: 31.6 µM [inhibitor, single point]. In the case of `O=C(Cn1c(C(=O)N2CCc3ccccc3C2)cc2sccc21)c1ccccc1`, the Potency is reported as inconclusive: 14.1 µM [inhibitor, partial curve]. For `Cn1c(=N)c(S(=O)(=O)c2ccccc2)cc2c(=O)n3ccccc3nc21`, the Potency was active: 3.16 µM. With `Cc1nc2c(ccc3nc(NC(=O)C(c4ccccc4)c4ccccc4)sc32)s1` the Potency was inconclusive: 25.1 µM [inhibitor, single point]. With `COc1cccc(Nc2nc(-c3sc(NC(=O)CC(C)C)nc3C)cs2)c1` the Potency was inconclusive: 35.5 µM [inhibitor, single point]. In the case of `Cn1cccc1C(=O)Nc1nc(-c2ccccn2)cs1`, the Potency is reported as active: 12.6 µM. With `NS(=O)(=O)c1ccc(Oc2ccc(S(N)(=O)=O)cc2)cc1` the Potency was inconclusive: 5.62 µM [activator, single point]. In the case of `C/C=C/c1ccc(OCCOc2ccc(C=O)cc2)c(OC)c1`, the “activity change, negative = inhibition” value is reported as inactive: 7.14%. For `O=c1[nH]c2cc3c(cc2cc1C(c1nnnn1CC1CCCO1)N1CCCC1)OCO3` (centres undefined), the Potency was inconclusive: 0.891 µM [inhibitor, single point]. In the case of `O=S(=O)(c1ccccc1)c1ccccc1/C=N\O`, the Potency is reported as inconclusive: 39.8 µM [inhibitor, partial curve, poor fit]. In the case of `COc1ccccc1N1CCN(C(=O)c2cc(C)oc2C)CC1`, the Potency is reported as inconclusive: 20 µM [inhibitor, single point]. In the case of `CC(O)c1c(OCc2ccccc2)ncnc1OCc1ccccc1` (centres undefined), the Potency is reported as inconclusive: 14.1 µM [inhibitor, single point]. With `CCOC(=O)c1cc(C(=O)c2ccccc2O)cn2c(=O)c3c(C)c(C)sc3nc12` the “activity change, negative = inhibition” value was inactive: -15.4%. In the case of `COc1ccc(CCNC(=S)N2CCC(Cc3ccccc3)CC2)cc1OC`, the Potency is reported as active: 22.4 µM. For `O=C(NCCc1ccccc1)C(=Cc1ccc(C(=O)O)cc1)C(=O)NCCc1ccccc1`, the Potency was inconclusive: 3.55 µM [activator, single point]. For `Cc1ccsc1/C=N/NC(=O)Cn1cnc2ccccc21`, the Potency was inconclusive: 5.62 µM [activator, single point]. For `Cc1cc2nc(CCN(C(=S)NCC(C)C)C3CCCC3)[nH]c2cc1C`, the Potency was inconclusive: 35.5 µM [inhibitor, single point]. With `O=C(Nc1cccnc1)Nc1ccc(Br)cc1Cl` the Potency was inconclusive: 5.01 µM [inhibitor, partial curve]. In the case of `COC(/C=C/Nc1ccc(OC)cc1)=C(C#N)C#N`, the Potency is reported as inconclusive: 0.891 µM [inhibitor, single point]. With `S=c1[nH]cnc2scc(-c3ccc(Cl)cc3)c12` the Potency was inconclusive: 5.62 µM [inhibitor, single point]. For `COc1cc(CN2CCCC(CO)(Cc3cccc(Cl)c3)C2)cc2c1OCO2` (centres undefined), the activity change, negative = inhibition was inactive: 11.6% [at 9.22 µM]. For `CCCC(=O)Nn1cnc2c(c1=O)C1(CCCC1)Cc1ccccc1-2`, the Potency was inconclusive: 3.16 µM [inhibitor, single point]. With `COc1ccc(C(=O)C[n+]2cc(-c3ccc(OC)cc3)n3c2CCCC3)cc1` the Potency was active: 10 µM. For `CC(C)COC(=O)C1C(=O)CC(C)(O)C(C(=O)OCC(C)C)C1c1cccnc1` (centres undefined), the “activity change, negative = inhibition” value was inactive: 5.55%. For `CCC[C@@H]1C[C@@]1(CCC)[C@@H](NP(=O)(c1ccccc1)c1ccccc1)c1ccc(C(=O)OC)cc1`, the Potency was inconclusive: 35.5 µM [inhibitor, single point]. In the case of `O=C(NCC(c1cccnc1)N1CCN(c2ccc(F)cc2)CC1)c1cccc(Cl)c1` (centres undefined), the Potency is reported as inconclusive: 35.5 µM [inhibitor, partial curve, poor fit]. In the case of `Nc1cc2nc[nH]c2cc1N`, the “activity change, negative = inhibition” value is reported as inactive: 10.8%. In the case of `CC1CCN(c2nc3c(c(=O)[nH]c(=O)n3C)n2Cc2ccccc2Cl)CC1`, the Potency is reported as inconclusive: 35.5 µM [inhibitor, partial curve, poor fit]. In the case of `COC(=O)C[N+](C)(C)CC#Cc1ccccc1`, the Potency is reported as inconclusive: 3.16 µM [inhibitor, partial curve]. With `Cc1cc(C)nc(Sc2ncnc3c2oc2ccccc23)n1` the Potency was inconclusive: 8.91 µM [activator, partial curve]. For `CCCn1c(CN(C)Cc2ccccc2)nc2c1c(=O)n(C)c(=O)n2C`, the Potency was active: 22.4 µM. With `Cc1nnsc1S(=O)(=O)Cc1ccccc1C(F)(F)F` the “activity change, negative = inhibition” value was inactive: -1.56%. For `Cc1cc(C(C)(C)C)oc1C(=O)N(CC(=O)NC1CCCC1)c1ccc(F)cc1`, the Potency was inconclusive: 10 µM [inhibitor, partial curve]. With `C=CCn1c(COC)nnc1SCC(=O)c1ccc(F)cc1` the Potency was inconclusive: 31.6 µM [activator, single point]. In the case of `CC(NC(=O)/C=C/c1ccco1)c1nc2ccccc2n1Cc1c(Cl)cccc1Cl` (centres undefined), the Potency is reported as inconclusive: 20 µM [activator, single point]. With `O=C(CSc1cccc[n+]1[O-])Nc1cc([N+](=O)[O-])ccc1Cl` the “activity change, negative = inhibition” value was inactive: 9.71%. With `Cc1ccc(NC(=S)N(CCN(C)C)Cc2cc3cc(C)cc(C)c3[nH]c2=O)cc1` the Potency was inconclusive: 1.26 µM [inhibitor, single point]. For `Cc1ccc(OCc2nc(-c3ccccn3)n[nH]2)cc1`, the Potency was inconclusive: 35.5 µM [inhibitor, single point]. For `CCn1c(=O)cc(OCC(=O)N2CCCC2)c2ccccc21`, the “activity change, negative = inhibition” value was inactive: 17.2%. For `Cc1ccc(-c2cc(C(=O)OCC(=O)Nc3cc(C)on3)c3ccccc3n2)c(C)c1`, the Potency was inconclusive: 3.55 µM [inhibitor, single point]. In the case of `C/C(=N\NC(=O)CSCc1ccc(Cl)cc1)c1ccc2c(c1)OCCO2`, the Potency is reported as inconclusive: 35.5 µM [inhibitor, single point]. In the case of `O=C(/C=C/c1cc(Br)ccc1O)c1ccco1`, the activity change, negative = inhibition is reported as inactive: 5.76% [at 9.22 µM]. In the case of `O=C(CCc1ccc(S(=O)(=O)NCCc2ccccc2)cc1)Nc1ccc2c(c1)OCCO2`, the “activity change, negative = inhibition” value is reported as inactive: 8.44%. For `CC(OC(=O)CNC(=O)c1ccc2c(c1)OCO2)C(=O)NCCC1=CCCCC1` (centres undefined), the “activity change, negative = inhibition” value was inactive: -11.2%. With `CC(C)SCc1cc(N2CCCC2)nc(-c2ccccc2)n1` the Potency was inconclusive: 14.1 µM [inhibitor, single point]. With `CCN(CC)c1ncnc2c1[nH]c1ccccc12` the Potency was inconclusive: 35.5 µM [inhibitor, single point]. With `CCCCNC(=O)Nc1ccccc1C(=O)NCc1ccco1` the “activity change, negative = inhibition” value was inactive: 24.4%. With `CCCSc1cc(N2CCOCC2)nc(-c2ccccc2Cl)n1` the Potency was inconclusive: 15.8 µM [inhibitor, single point]. In the case of `O=S(=O)(NC1CCCCC1)c1ccc(Br)cc1`, the Potency is reported as inconclusive: 22.4 µM [inhibitor, partial curve]. In the case of `O=C(N/C(=C/c1cn(-c2ccccc2)nc1-c1ccccc1)C(=O)N1CCOCC1)c1ccc(Cl)cc1Cl`, the “activity change, negative = inhibition” value is reported as inactive: -1.39%. With `O=C(NNC(=S)NC1CCCCC1)c1ccc(Cl)s1` the Potency was inconclusive: 11.2 µM [inhibitor, single point]. In the case of `Cc1cc(C2C(=O)CC(=O)CC2c2ccccc2)on1` (centres undefined), the “activity change, negative = inhibition” value is reported as inactive: 8.71%. With `CN1CCC(OC(=O)C(Oc2ccc(Cl)cc2)Oc2ccc(Cl)cc2)CC1` the “activity change, negative = inhibition” value was inactive: -12%. With `Cc1cccc(C)c1NC(=O)CCCSc1nnc(-c2ccco2)o1` the “activity change, negative = inhibition” value was inactive: 1.54%. With `c1ccc2c(CSCc3nc4ccccc4[nH]3)cccc2c1` the Potency was inconclusive: 10 µM [inhibitor, partial curve]. In the case of `CCc1nc(N2CCCC(C)C2)c2oc3ccccc3c2n1` (centres undefined), the Potency is reported as inconclusive: 35.5 µM [inhibitor, single point]. For `CCOC(=O)N1CCN(C(=O)c2ccc3c(c2)N(Cc2ccc(C)cc2)CCS3)CC1`, the Potency was active: 11.2 µM. In the case of `O=C(Nc1ccccc1F)NC1CCN(Cc2nnnn2Cc2ccc(F)cc2)CC1`, the “activity change, negative = inhibition” value is reported as inactive: 7.07%. In the case of `COCCN(C(=O)CSc1nnc(-c2cccc(OC)c2)n1C)c1c(N)n(Cc2ccccc2)c(=O)[nH]c1=O`, the Potency is reported as inconclusive: 3.98 µM [activator, full curve, poor fit]. For `N#C/C(=C\c1ccc([N+](=O)[O-])o1)c1nc2ccccc2[nH]1`, the activity change, negative = inhibition was inactive: -23.8% [at 9.22 µM]. For `C=CCSc1nnc(NC(=O)c2cccc(S(=O)(=O)N(C)c3ccccc3)c2)s1`, the Potency was active: 10 µM. With `COc1cc(/C=N/NC(=O)CCc2ccccc2)ccc1O` the Potency was inconclusive: 22.4 µM [inhibitor, single point]. In the case of `Cc1c(C(=O)OC(C)C)sc(NC(=O)c2cccnc2)c1C#N`, the Potency is reported as active: 11.2 µM. In the case of `Cc1cccc2sc(N(CCN(C)C)C(=O)/C=C/c3cccs3)nc12`, the Potency is reported as inconclusive: 10 µM [activator, partial curve, poor fit]. For `S=c1[nH]nc(Cc2ccc(Br)cc2)n1/N=C/c1ccc(Cl)cc1`, the “activity change, negative = inhibition” value was inactive: 10.1%. With `CCc1nnc(NC(=O)CSc2nnc(-c3ccco3)o2)s1` the “activity change, negative = inhibition” value was inactive: -16.1%. With `CCCCNc1cc(C)nc(NCc2ccccc2)n1` the Potency was active: 10 µM. In the case of `CCC1Oc2ccccc2N(Cc2ccccc2C)C1=O` (centres undefined), the Potency is reported as inconclusive: 35.5 µM [activator, partial curve]. For `O=C(Nc1ccc(O)cc1)c1ccc(C(=O)c2ccccc2)o1`, the Potency was inconclusive: 10 µM [activator, partial curve]. In the case of `N#CC1=C(Nc2ccccc2)SC=C(c2ccccc2)N=C1N1CCOCC1`, the “activity change, negative = inhibition” value is reported as inactive: 7.52%. In the case of `Cc1ccc2c(c1)nnn2C1CCN(S(=O)(=O)c2ccc(C(=O)N3C(C)CCCC3C)cc2)CC1` (centres undefined), the Potency is reported as active: 12.6 µM. For `Cc1ccc(-c2cc(C(F)F)n3ncc(C(=O)N4CCN(c5cccc(C)c5C)CC4)c3n2)cc1`, the Potency was inconclusive: 31.6 µM [inhibitor, single point].
